Laboratory results taken from patent US6803232B1, “NPY-Y7 receptor gene” (The Garvan Institute of Medical Research, priority 1998, dated 2004).
No constants are given. Whether binding was seen depends on the method and setting. Some entries that bind do so weakly or less than the wild type.

By UniProt entry, the sequences of proteins in these tests, tags left out. Where a name states a change or a piece, a line headed by the entry shows the natural chain unless it says otherwise.
UniProt Q9Y5X5: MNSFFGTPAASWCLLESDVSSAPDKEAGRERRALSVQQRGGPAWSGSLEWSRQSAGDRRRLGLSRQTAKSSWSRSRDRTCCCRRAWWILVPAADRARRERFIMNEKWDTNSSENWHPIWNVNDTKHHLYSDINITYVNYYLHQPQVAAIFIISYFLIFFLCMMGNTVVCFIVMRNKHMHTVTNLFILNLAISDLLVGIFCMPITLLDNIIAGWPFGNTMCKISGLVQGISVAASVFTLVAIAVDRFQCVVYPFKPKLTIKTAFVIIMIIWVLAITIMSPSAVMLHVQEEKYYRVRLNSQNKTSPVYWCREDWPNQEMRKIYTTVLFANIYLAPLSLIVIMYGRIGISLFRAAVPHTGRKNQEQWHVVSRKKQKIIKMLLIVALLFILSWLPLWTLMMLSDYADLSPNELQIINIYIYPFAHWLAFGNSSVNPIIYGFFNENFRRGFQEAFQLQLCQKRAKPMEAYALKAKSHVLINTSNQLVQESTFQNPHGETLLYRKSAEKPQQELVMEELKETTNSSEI

target: human NPY-Y7 receptor (human) (UniProt Q9Y5X5); assay: rank of potency, displacement of [125I]PYY on Y7 membranes

Molecule	binding
[3-36]NPY (from UniProt P01303 31-64) (peptide)	binds
[13-36]NPY (from UniProt P01303 41-64) (peptide)	binds
(Leu31, Pro34)NPY (from UniProt P01303 29-64) (peptide)	binds

Other lines, results leading:

binding	Molecule
binds	NPY (from UniProt P01303 29-64) (peptide)
binds	APLEPVYPGDNATPEQMAQYAADLRRYINMLTRPRY (peptide, UniProt P01298 30-65, looked up) [PP]
